Experimental findings from patent publication US6455528B1, “Piperazine compounds and medicinal use thereof” (Mitsubishi Pharma Corporation, priority 1997, dated 2002) are described below.

In one experiment the test system is female BALB/c mice. The conditions noted are these: LPS 10 mg/kg i.p.; test compound orally 30 min before LPS; survival monitored for 3 days; 9 mice per group; all non-administered mice died.
A further experiment has as its system male Lewis rats. The following applies: rat, in vivo.

`CC(=O)NCc1ccc(CN2CCN(c3ccc(F)cc3F)CC2)cc1` [Example 20, N-(4-((4-(2,4-Difluorophenyl)piperazin-1-yl)methyl)phenylmethyl)acetamide] gave a mice survived in the experiment with female BALB/c mice of 8 mice. Besides, in the experiment with male Lewis rats, the “volume of the limb decreased by (change from day 15 to day 20)” value is 0.186 mL.
